Measured values as given in the supplement of paper PMC12823440, “Inhibitors supercharge kinase turnover through native proteolytic circuits” (Nature, 2025).
Counter-ions that a name gives are not always drawn. The list shows a part of the results. Hit calls seldom repeat between salt and free forms of one compound.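 Kinases, fused to nanoluciferase, were expressed in K562 cells; luminescence was measured every 4 h from 2 to 18 h as percent of control (DMSO = 100%, positive control = 0%). A time point is decreased if signal falls significantly (2 sigma). Hits were called by the authors by a rule that is not shown; the count of time points alone does not decide it.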

Sequences of proteins named here, by UniProt entry; tags and fusion partners are left off. A change or cut given only in a name is not applied to a line headed by its entry.
UniProt Q14289, whole entry, looked up: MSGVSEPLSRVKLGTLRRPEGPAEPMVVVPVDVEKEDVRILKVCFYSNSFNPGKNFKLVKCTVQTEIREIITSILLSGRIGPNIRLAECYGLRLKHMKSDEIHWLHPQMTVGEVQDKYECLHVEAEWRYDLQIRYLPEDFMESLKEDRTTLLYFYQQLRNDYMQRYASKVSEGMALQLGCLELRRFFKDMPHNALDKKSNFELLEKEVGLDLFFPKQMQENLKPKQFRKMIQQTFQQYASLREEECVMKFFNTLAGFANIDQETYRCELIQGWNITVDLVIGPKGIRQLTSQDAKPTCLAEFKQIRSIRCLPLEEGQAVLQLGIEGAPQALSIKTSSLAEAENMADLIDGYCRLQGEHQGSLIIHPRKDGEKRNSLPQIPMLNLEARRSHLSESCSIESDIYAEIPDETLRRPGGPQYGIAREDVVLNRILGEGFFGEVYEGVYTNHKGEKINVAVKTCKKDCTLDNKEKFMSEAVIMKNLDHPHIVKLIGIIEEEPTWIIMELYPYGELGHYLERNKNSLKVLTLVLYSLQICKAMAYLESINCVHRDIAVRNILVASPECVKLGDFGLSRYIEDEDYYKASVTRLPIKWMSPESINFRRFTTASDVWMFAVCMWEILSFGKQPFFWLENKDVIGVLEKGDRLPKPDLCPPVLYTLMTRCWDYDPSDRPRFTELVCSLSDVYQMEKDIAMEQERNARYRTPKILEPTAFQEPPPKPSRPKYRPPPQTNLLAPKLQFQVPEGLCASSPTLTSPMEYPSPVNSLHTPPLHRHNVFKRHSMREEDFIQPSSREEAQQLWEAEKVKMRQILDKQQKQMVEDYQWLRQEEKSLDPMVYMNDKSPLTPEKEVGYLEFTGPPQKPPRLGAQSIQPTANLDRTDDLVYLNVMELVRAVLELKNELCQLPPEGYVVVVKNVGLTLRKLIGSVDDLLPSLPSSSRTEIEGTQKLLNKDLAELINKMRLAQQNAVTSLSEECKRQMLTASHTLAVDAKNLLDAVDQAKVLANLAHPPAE
UniProt Q9BRS2: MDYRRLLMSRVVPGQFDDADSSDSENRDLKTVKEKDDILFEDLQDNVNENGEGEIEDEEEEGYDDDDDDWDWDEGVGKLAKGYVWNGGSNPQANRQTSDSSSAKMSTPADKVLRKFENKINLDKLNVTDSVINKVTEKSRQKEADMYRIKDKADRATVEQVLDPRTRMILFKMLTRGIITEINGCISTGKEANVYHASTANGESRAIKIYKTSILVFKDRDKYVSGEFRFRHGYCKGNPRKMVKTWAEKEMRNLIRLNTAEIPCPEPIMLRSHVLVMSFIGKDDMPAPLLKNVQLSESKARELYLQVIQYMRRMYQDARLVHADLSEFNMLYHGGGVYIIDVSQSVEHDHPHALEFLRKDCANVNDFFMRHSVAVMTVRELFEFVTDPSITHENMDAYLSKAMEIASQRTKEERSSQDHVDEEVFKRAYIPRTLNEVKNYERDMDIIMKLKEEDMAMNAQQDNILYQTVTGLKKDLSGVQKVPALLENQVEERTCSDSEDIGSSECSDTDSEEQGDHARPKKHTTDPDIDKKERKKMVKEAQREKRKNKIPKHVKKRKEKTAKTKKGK
UniProt Q15418, whole entry: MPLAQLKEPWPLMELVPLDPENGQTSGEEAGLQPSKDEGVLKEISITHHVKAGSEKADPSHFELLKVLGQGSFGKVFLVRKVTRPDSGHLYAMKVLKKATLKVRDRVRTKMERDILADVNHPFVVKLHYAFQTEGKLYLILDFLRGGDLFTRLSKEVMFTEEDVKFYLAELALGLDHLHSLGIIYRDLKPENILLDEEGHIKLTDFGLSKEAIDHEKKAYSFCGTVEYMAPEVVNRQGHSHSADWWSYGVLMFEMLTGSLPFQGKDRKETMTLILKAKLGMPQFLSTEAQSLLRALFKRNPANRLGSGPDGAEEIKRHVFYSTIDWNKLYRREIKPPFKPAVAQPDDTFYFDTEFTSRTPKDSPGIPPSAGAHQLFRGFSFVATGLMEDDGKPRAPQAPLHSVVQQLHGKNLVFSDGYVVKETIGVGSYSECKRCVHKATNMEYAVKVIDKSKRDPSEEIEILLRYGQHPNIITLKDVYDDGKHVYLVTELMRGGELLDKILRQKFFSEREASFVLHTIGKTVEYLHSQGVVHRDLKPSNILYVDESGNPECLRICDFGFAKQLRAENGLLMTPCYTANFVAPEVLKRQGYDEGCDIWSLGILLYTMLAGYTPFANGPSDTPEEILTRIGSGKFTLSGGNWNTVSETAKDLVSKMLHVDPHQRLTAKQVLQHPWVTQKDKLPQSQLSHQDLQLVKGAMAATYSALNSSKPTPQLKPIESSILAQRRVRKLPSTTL
UniProt Q9NYA1, whole entry: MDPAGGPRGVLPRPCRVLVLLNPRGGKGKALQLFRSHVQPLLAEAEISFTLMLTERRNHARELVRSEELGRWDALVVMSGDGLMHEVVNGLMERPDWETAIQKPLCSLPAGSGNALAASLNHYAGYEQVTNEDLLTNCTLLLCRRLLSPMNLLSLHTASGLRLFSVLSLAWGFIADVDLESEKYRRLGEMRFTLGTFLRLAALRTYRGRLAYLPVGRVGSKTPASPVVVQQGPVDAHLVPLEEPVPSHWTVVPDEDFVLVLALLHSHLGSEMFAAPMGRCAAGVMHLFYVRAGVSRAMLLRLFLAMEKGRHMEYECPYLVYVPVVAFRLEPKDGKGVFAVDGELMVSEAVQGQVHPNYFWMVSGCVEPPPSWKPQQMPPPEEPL
UniProt Q9Y6E0: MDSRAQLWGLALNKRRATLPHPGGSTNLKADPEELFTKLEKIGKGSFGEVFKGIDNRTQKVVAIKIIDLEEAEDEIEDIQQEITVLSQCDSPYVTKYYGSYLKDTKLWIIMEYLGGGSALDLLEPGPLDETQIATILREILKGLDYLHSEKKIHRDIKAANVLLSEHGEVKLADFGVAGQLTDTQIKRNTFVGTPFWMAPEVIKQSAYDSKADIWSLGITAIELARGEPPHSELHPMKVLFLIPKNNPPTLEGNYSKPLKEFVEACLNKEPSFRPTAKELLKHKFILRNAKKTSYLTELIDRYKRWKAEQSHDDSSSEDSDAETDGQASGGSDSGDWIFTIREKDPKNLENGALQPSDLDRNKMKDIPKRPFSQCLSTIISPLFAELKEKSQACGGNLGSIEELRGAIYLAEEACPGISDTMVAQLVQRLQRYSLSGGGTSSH
UniProt Q15208: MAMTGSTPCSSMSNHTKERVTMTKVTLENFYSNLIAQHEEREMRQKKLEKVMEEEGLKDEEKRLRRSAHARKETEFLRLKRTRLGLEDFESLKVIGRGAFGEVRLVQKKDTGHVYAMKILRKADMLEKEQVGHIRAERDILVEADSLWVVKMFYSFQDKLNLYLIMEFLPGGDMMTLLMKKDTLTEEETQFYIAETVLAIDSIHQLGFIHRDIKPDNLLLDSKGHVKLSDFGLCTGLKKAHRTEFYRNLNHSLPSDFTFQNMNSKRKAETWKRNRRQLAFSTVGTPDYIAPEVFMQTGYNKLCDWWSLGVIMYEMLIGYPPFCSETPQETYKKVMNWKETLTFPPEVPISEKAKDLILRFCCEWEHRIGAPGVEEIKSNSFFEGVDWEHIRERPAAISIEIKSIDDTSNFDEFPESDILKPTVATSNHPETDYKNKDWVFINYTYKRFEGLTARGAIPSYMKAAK
UniProt P42680: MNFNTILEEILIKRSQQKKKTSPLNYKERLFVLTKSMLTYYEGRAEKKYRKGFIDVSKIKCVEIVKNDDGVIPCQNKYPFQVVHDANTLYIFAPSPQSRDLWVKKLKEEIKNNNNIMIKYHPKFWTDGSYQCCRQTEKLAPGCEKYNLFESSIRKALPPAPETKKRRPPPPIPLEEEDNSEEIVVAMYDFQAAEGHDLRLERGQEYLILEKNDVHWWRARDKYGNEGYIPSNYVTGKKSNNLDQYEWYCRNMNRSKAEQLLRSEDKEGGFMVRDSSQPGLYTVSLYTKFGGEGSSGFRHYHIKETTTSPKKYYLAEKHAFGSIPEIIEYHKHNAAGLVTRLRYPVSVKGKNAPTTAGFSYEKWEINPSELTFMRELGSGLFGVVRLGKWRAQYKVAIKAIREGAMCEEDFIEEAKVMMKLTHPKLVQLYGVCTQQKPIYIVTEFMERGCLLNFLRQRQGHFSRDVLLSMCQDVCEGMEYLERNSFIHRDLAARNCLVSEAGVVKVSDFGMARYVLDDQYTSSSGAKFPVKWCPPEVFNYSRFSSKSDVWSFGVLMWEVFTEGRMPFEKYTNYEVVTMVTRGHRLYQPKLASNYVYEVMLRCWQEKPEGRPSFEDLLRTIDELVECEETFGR
UniProt P29597: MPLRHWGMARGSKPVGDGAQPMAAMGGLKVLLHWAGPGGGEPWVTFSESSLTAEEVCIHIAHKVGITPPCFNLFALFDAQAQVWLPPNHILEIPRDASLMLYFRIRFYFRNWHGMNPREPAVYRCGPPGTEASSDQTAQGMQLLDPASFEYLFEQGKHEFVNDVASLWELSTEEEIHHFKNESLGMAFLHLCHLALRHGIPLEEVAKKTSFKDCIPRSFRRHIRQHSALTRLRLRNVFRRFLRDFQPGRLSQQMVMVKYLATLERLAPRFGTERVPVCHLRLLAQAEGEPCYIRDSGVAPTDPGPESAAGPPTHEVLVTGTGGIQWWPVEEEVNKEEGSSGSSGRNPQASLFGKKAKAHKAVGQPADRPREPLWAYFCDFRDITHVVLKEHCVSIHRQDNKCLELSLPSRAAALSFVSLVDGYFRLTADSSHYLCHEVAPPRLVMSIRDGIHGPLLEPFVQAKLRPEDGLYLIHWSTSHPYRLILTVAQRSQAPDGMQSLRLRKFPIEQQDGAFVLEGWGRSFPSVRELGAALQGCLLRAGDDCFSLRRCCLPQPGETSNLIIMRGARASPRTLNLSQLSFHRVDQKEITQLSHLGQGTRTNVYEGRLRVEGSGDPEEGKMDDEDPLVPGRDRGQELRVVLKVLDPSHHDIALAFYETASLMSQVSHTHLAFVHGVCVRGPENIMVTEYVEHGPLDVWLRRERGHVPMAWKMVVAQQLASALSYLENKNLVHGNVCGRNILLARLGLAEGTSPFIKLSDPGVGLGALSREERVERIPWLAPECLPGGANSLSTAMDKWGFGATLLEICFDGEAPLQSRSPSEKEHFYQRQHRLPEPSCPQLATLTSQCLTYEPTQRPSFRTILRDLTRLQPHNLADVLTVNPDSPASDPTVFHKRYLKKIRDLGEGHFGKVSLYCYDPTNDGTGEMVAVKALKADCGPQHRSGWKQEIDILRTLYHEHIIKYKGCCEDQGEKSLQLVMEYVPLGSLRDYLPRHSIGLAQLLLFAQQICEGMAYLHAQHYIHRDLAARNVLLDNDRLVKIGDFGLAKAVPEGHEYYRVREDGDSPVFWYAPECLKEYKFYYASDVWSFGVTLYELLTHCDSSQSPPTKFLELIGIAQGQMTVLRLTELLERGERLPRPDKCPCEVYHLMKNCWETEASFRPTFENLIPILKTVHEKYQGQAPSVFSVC
UniProt Q6PHR2: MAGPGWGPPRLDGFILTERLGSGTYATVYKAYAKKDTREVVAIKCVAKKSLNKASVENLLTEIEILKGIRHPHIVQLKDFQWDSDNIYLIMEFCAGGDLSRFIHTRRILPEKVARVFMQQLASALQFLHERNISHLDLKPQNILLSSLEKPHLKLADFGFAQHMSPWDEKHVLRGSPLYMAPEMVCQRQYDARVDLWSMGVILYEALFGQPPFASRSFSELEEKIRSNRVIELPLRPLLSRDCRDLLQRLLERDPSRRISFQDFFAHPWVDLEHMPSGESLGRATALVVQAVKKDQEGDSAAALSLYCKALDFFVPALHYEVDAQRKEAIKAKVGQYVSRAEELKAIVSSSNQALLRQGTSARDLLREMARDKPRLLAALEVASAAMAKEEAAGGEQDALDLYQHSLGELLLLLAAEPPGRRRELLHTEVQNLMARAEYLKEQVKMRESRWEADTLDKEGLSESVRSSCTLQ

Tests used:
Test in all cases: number of time points (of 5) at which kinase-Nluc abundance scored as decreased, DMSO-normalised (count); higher = more persistent destabilization
Conditions in all cases: K562; 2-18 h
[1] = target: PRKCA (UniProt P17252)
[2] = target: PTK2 (UniProt Q05397)
[3] = target: PTK2B (UniProt Q14289)
[4] = target: RAF1 (UniProt P04049)
[5] = target: RAF1_S257L (clone: RAF1_mut) (UniProt P04049)
[6] = target: RET (UniProt P07949)
[7] = target: RET_M918T (clone: RET_mut) (UniProt P07949)
[8] = target: RIOK1 (UniProt Q9BRS2)
[9] = target: RIPK1 (UniProt Q13546)
[10] = target: RIPK2 (UniProt O43353)
[11] = target: ROR2 (UniProt Q01974)
[12] = target: RPS6KA1 (UniProt Q15418)
[13] = target: SPHK1 (UniProt Q9NYA1)
[14] = target: SRC (UniProt P12931)
[15] = target: STK24 (UniProt Q9Y6E0)
[16] = target: STK38 (UniProt Q15208)
[17] = target: SYK (UniProt P43405)
[18] = target: TEC (UniProt P42680)
[19] = target: TYK2 (UniProt P29597)
[20] = target: ULK3 (UniProt Q6PHR2)

Measured: number of time points

Cc1ccc(Oc2nc3cc(-c4ccc(-c5ccccc5)cc4)c(Cl)cc3[nH]2)cc1C(=O)O (10 µM)
0: all assays above

COc1ccc2cc(-c3nc(-c4ccc([S+](C)[O-])cc4)[nH]c3-c3ccncc3)ccc2c1 (stereo not given) [Tie2 kinase inhibitor 1] (2.5 µM)
0: all assays above

O=C(NC1CCOCC1)c1ccc(-c2cc(-c3c[nH]nc3-c3ccccn3)ccn2)cc1 (10 µM)
0: all assays above

CCN(CC)CCC(=O)N1N=C(c2c(-c3ccccc3)c3cc(Br)ccc3[nH]c2=O)CC1c1ccc(Br)cc1 (stereo not given) (2.5 µM)
1: [2] | [7]
0: all other assays above

CS(=O)(=O)c1ccc(-c2cnc(N)c(-c3ccc(C(F)(F)F)nc3)c2)cc1 (10 µM)
0: all assays above

CNC(=O)c1ccccc1Nc1nc(Nc2ccc3c(c2OC)CCC[C@H](N2CCN(CCO)CC2)C3)ncc1Cl (10 µM)
2: [2] | [4] | [8] | [10]
4: [5] | [19]
3: [7] | [9] | [20]
0: all other assays above

Cc1cccc2c3c(ccc12)C(=O)C1=C(OCC1C)C3=O (stereo not given) [Dihydroisotanshinone I] (2.5 µM)
0: all assays above

Nc1nc(N)c2nc(-c3cccc(O)c3)cnc2n1 (10 µM)
0: all assays above

Cc1cc(Nc2nc(CC3(C(=O)O)CCN(C(=O)c4cccc(Cl)c4Cl)CC3)ccc2F)n[nH]1 (10 µM)
3: [5]
2: [19]
1: [4] | [6] | [8] | [10] | [20]
0: all other assays above

O=C(Nc1nc2ccccc2[nH]1)c1cccc([N+](=O)[O-])c1 [IRAK-4 protein kinase inhibitor 2] (10 µM)
0: all assays above

N#CC(c1ccnc(OCc2ccc(CN3CCOCC3)cc2)n1)c1nc2ccccc2s1 (stereo not given) [Bentamapimod] (2.5 µM)
0: all assays above

C[C@@H]1CN(c2cc(-c3n[nH]c4ccc(OC5(C)CC5)cc34)ncn2)C[C@H](C)O1 (10 µM)
0: all assays above

O=[N+]([O-])c1ccc2c(c1)S(=O)(=O)C=C2 [Stattic] (2.5 µM)
1: [4]
3: [9] | [10] | [19]
0: all other assays above

COc1ccc(/C=C/C(=O)C2(C(=O)/C=C/c3ccc(OC)c(OC)c3)CCCCC2)cc1OC (2.5 µM)
2: [19]
1: [20]
0: all other assays above

O=C(O)c1cc(N(Cc2ccccc2O)Cc2ccccc2O)ccc1O [Lavendustin B] (10 µM)
0: all assays above

CC(C)c1cc(/C=C(\C#N)C(=O)NCCCc2ccccc2)cc(C(C)C)c1O (10 µM)
1: [4]
0: all other assays above

CNc1cc(Nc2cccn(-c3ccccn3)c2=O)nn2c(C(=O)N[C@@H]3C[C@@H]3F)cnc12 (2.5 µM)
5: [3]
0: all other assays above

Cc1nc(-c2cnn(C)c2)nc2c1[nH]c1ncc(-c3ccc(N4CCN(C)CC4)cc3)cc12 [GNE 220 (hydrochloride)] (10 µM)
0: all assays above

CCOC(=O)N1C/C(=C/c2ccccc2F)C(=O)/C(=C\c2ccccc2F)C1 (2.5 µM)
0: all assays above

C=CC(=O)Nc1cccc(CNc2nc(Nc3ccc(N4CCN(C)CC4)cc3OC)ncc2Cl)c1 (10 µM)
0: all assays above

C=CC(=O)Nc1cc(-n2c(=O)ccc3cnc4ccc(-c5ccc(NS(C)(=O)=O)cc5)cc4c32)ccc1C (10 µM)
4: [19]
0: all other assays above

COc1ncccc1-c1cnn2ccc(N3CCN(C(=O)OC(C)C)CC3)nc12 (10 µM)
0: all assays above

O=C1/C(=C\c2ccc(Cl)cc2)C=C(c2ccccc2)N1c1ccc(O)cc1 (2.5 µM)
0: all assays above

FC(F)(F)c1ccc(/C=C/c2nc(COc3ccc(CCCCn4ccnn4)cc3)co2)cc1 [Mubritinib] (10 µM)
3: [6] | [7]
1: [2]
2: [9] | [18]
0: all other assays above

CC(C)CCNC(=O)c1ccc2c(c1)nc(Nc1n[nH]c3ccc(-c4ccccc4OC(F)(F)F)cc13)n2C1CCC(O)CC1 (stereo not drawn) [IRAK inhibitor 4 (trans)] (10 µM)
0: all assays above

Cc1ccc(NC(=O)c2ccnc(C(F)(F)F)c2)cc1-c1cc(OCCO)nc(N2CCOCC2)c1 (10 µM)
0: all assays above

Nc1n[nH]c2nc(-c3ccc(NS(=O)(=O)c4cc(Cl)ccc4F)cc3)cnc12 (10 µM)
5: [13]
2: [4]
1: [2]
0: all other assays above

N[C@@H](CCC(=O)O)C(=O)N[C@@H](Cc1c[nH]c2ccccc12)C(=O)O [Oglufanide] (10 µM)
0: all assays above

CN1CCC(c2ccccc2CC(C)(C)Nc2nc(N3CCOCC3)nc(-n3c(C(F)F)nc4ccccc43)n2)CC1 [Zandelisib] (10 µM)
0: all assays above

C[C@@H]1COCCN1c1nc(-c2cnc(N)cc2C(F)F)nc(N2[C@H](C)COC[C@@H]2C)n1 (2.5 µM)
2: [9]
4: [7]
1: [2]
0: all other assays above

O=C(NCc1cccc(O)c1)Nc1nc(-c2ccncc2)cs1 (10 µM)
0: all assays above

CCc1cccc(CC)c1NC(=O)N1Cc2[nH]nc(NC(=O)c3ccc(N4CCN(C)CC4)cc3)c2C1 (2.5 µM)
1: [3] | [7]
2: [2] | [4] | [8] | [9]
3: [5] | [6] | [10] | [19] | [20]
0: all other assays above

Cc1ncc(NC(=O)NC2c3ccccc3-c3ccccc32)c(-c2ccccc2)n1 (10 µM)
0: all assays above

CC(C)c1cccc(C(C)C)c1N1C(=O)c2ccc(N)cc2C1=O (2.5 µM)
0: all assays above

CCN(CC)c1ccc2cc(-c3nc4cc(C)ccc4o3)c(=O)oc2c1 (10 µM)
0: all assays above

C[C@H](Nc1ncnc2nc[nH]c12)c1cc2cccc(Cl)c2c(=O)n1-c1ccccc1 [Duvelisib] (10 µM)
0: all assays above

c1ccc(-c2nc(=NCCN3CCOCC3)sn2-c2ccccc2)cc1 [VP3.15 (dihydrobromide)] (10 µM)
0: all assays above

Cn1cc(-c2c[nH]c3ncnc(N4CCOCC4)c23)cc1C#N (10 µM)
0: all assays above

COc1cc(N(C)CCN(C)C)c(N)cc1Nc1nccc(-c2cn(C)c3ccccc23)n1 [Mutated EGFR-IN-1] (10 µM)
2: [5]
0: all other assays above

Oc1ccc(/C=C/c2cc(O)cc(F)c2)cc1 [Resveratrol analog 1] (10 µM)
0: all assays above

CCCCCCCCCCCCCCCCOP(=O)([O-])OCC[N+](C)(C)C [Miltefosine] (10 µM)
0: all assays above

Nc1cccc(-c2cc3c(Oc4cccc(O)c4)ncnc3[nH]2)c1 (10 µM)
3: [5] | [10] | [19]
2: [4] | [9] | [18] | [20]
1: [2] | [6] | [7] | [8] | [16]
0: all other assays above

COc1ccc(S(=O)(=O)NCc2ccc(C(=O)NCCc3ccc(Cl)cn3)cc2)cc1 (10 µM)
0: all assays above

COc1cc2ncnc(Nc3ccc(F)c(Cl)c3)c2cc1NC(=O)/C=C/CN1CCCCC1 [Dacomitinib] (10 µM)
1: [19]
0: all other assays above

c1cc(NC2CCNCC2)nc(-c2cnc3ccccn23)c1 [IRAK inhibitor 1] (10 µM)
0: all assays above

NC(=S)n1[nH]c(-c2ccc([N+](=O)[O-])cc2)c(N=Nc2cccc(Cl)c2)c1=O (2.5 µM)
1: [2] | [13]
0: all other assays above

CC(C)S(=O)(=O)c1ccc2nccc(Nc3ccc4scnc4c3)c2c1 (10 µM)
3: [5]
4: [10]
0: all other assays above

CNC(=O)c1ccccc1Oc1nc(Nc2cc(OC)c(OC)c(OC)c2)ncc1Br (2.5 µM)
0: all assays above

CN1C(=O)[C@@H](NC(=O)c2n[nH]c(Cc3ccccc3)n2)COc2ccccc21 (10 µM)
0: all assays above
